Measured values published in article doi:10.1101/2025.08.04.668392 (bioRxiv, 2025).

Sequences of proteins named here, by UniProt entry; tags and fusion partners are left off. A change or cut given only in a name is not applied to a line headed by its entry.
UniProt O42480: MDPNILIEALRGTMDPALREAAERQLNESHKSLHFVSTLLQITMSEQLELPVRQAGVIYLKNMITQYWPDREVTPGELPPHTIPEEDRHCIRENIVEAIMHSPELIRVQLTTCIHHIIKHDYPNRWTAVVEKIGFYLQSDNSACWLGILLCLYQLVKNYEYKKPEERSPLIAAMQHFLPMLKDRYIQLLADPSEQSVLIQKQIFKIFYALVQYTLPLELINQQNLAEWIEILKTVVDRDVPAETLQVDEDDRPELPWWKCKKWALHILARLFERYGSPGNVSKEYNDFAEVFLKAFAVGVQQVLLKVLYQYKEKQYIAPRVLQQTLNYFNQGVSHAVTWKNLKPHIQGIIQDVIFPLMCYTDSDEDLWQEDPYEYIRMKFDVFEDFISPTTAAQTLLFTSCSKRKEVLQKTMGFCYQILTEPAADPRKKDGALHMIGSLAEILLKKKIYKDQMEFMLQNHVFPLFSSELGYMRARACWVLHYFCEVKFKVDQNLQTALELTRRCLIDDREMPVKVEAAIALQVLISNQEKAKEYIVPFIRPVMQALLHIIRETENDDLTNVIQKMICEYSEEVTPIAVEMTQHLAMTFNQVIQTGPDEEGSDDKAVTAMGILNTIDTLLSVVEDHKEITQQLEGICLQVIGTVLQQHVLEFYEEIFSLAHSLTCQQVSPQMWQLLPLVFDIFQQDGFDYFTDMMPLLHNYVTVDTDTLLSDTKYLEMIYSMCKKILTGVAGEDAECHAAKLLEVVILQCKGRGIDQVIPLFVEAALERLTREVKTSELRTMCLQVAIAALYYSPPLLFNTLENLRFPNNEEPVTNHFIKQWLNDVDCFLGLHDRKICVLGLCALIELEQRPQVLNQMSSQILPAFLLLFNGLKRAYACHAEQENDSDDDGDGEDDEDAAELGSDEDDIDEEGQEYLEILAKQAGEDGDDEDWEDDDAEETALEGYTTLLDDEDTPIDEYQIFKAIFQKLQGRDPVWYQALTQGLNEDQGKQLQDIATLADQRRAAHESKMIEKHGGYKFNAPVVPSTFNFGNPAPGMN

Target: Importin 7 (xlImp7) of the purified trimeric complex Impβ:Imp7:H1.11L-chick (X. laevis) (UniProt O42480)
Test: cross-linking

- binding: binds
B1: Histone H1.11L from chicken (natural protein, chicken (Gallus gallus), UniProt P08287 1-225, looked up)
chain: MSETAPAPAAEAAPAAAPAPAKAAAKKPKKAAGGAKARKPAGPSVTELITKAVSASKERKGLSLAALKKALAAGGYDVEKNNSRIKLGLKSLVSKGTLVQTKGTGASGSFRLSKKPGEVKEKAPKKKASAAKPKKPAAKKPAAAAKKPKKAVAVKKSPKKAKKPAASATKKSAKSPKKVTKAVKPKKAVAAKSPAKAKAVKPKAAKPKAAKPKAAKAKKAAAKKK

These are yes or no findings as the source states them, for the method shown. Binding can be weak; no strength is given.
